Test results: PubChem BioAssay AID488840 (Broad Institute, 2010)
Out of some 1,400 compounds screened, about 45 (3%) were called active.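 How the source made its calls: active means half-maximal dose of signal decrease from fit no higher than ten times the top valid tested dose; inconclusive means fit invalid, or curve flat with 30 to 70% inhibition; inactive means the rest.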 This is one part of the list. Potency and affinity values are given separately.

Amino acid sequences for entries named in this document (tags omitted). A change or cut given only in a name is not applied to a line headed by its entry.
UniProt O75164: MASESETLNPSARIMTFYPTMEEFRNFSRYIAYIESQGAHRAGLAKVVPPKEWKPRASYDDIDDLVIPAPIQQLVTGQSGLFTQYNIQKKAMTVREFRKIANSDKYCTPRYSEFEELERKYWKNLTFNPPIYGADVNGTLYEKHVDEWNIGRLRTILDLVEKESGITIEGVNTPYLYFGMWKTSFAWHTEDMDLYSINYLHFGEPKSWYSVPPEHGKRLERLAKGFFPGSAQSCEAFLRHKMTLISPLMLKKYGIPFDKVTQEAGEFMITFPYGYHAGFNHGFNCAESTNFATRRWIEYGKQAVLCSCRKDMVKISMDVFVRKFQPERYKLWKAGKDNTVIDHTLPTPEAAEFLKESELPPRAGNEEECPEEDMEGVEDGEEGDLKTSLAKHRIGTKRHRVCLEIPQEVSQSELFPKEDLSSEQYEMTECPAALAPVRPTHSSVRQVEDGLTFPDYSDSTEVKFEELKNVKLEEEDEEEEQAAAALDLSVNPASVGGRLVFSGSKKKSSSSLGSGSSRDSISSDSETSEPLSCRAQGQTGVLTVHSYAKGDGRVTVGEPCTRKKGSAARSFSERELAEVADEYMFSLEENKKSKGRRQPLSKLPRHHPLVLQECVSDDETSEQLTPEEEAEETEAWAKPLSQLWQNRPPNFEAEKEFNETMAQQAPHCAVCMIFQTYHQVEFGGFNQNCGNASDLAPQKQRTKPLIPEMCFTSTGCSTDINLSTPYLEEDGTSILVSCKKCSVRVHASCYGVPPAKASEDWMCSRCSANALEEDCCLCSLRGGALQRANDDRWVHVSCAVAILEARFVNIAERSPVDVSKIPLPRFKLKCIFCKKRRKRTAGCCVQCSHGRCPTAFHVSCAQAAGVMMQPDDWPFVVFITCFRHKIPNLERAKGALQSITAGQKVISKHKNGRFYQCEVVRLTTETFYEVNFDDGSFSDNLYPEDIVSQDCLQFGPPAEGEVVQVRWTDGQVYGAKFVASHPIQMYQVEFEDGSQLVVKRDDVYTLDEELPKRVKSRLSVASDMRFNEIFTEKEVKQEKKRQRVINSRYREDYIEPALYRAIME

Target: Lysine-specific demethylase 4A (Homo sapiens) (UniProt O75164)
Test: inhibition of JMJD2A H3K9me3 demethylation – biochemical, DELFIA europium, cherry-picked samples, selectivity assay for GASC-1 inhibitor project, dose response (AID 488840);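 further: europium signal reports the dimethyl H3K9 product detected by antibody so inhibitors lower it; 0% = median of neutral control wells and -100% = median of positive control wells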
Details: GST-JMJD2A(1-420) H3K9me3 demethylation; at 6 µM (top of the series)

Compound | activity change, negative = inhibition
CN1CCN(c2ccc(C=O)cc2)CC1 | inactive: 0.323%
O=C1NC(=O)N(Cc2ccc(F)cc2)C(=O)/C1=C\C=C\c1ccco1 | inactive: 8.19%
CCOC(=O)C1=CC(=C2C(=O)N(CC)C(=S)N(CC)C2=O)c2ccccc2O1 | inactive: -8.54%
C=CCC1C(=O)NC(=S)NC1=O | inactive: 1%
Cc1cccc(N2C(=O)NC(=O)/C(=C/c3ccc(N4CCOCC4)cc3)C2=O)c1 | inactive: 3.22%
CN1C(=O)C(=Cc2ccc(N3CCCCCC3)cc2)C(=O)N(C)C1=O | inactive: -1.93%
CC1(C)CC(=O)C(C2(O)C(=O)NC(=O)NC2=O)=C(O)C1 | inactive: -0.902%
CCN(CC)c1ccc(/C=C2\C(=O)NC(=O)N(CC3CCCO3)C2=O)cc1 (centres undefined) | inactive: 4.96%
CN(C)c1ccc(/C=C2\C(=O)NC(=O)N(CCc3ccc(F)cc3)C2=O)cc1 | inactive: 4.14%
O=C1NC(=O)C(C(CC(=O)c2ccccc2)c2ccccc2)C(=O)N1 (centres undefined) | inactive: 4.56%
C[C@@H]1CCC2[C@@H](C)C(=O)O[C@@H]3OC4(C)CCC1[C@@]23OO4 (some centres undefined) | inactive: -13.7%
Cc1ccc2[nH]c(=S)n(-c3cccnc3)c(=O)c2c1 | inactive: 0.86%
CN1C(=O)N(C)C(=O)C2(Cc3ccccc3N3CCCC32)C1=O (centres undefined) | inactive: -3.83%
N/C(=N\[N+](=O)[O-])N1CCN(C(=O)c2ccccc2)CC1 | inactive: 4.96%
Cc1cc(C)cc(OCCOc2cccc(C=C3C(=O)NC(=O)NC3=O)c2)c1 | inactive: -11.9%
Cc1[nH]c2ccc(OC(F)(F)F)cc2c1CCNCc1cccc([N+](=O)[O-])c1 | inactive: 0.553%
CC(=NCc1ccc(F)cc1)c1c(O)n(C)c(=O)n(C)c1=O | inactive: 1.79%
CCN1C(=O)C(=C/C=C/c2ccco2)C(=O)N(CC)C1=S | inactive: 19.8%
COCc1cc(OC(=O)N(C)C)nc2c1c(C)nn2C | inactive: 1.08%
O=C(c1cccs1)N1C2CCC1CC(O)(c1cccnc1)C2 (centres undefined) | inactive: 5.89%

Five entries out of the list, sorted by formula weight, falling.
Compound | activity change, negative = inhibition
CN(C)c1ccc(/C=C2\C(=O)NC(=O)N(CCc3ccc(F)cc3)C2=O)cc1 | inactive: 4.14%
O=C1NC(=O)N(Cc2ccc(F)cc2)C(=O)/C1=C\C=C\c1ccco1 | inactive: 8.19%
O=C1NC(=O)C(C(CC(=O)c2ccccc2)c2ccccc2)C(=O)N1 (centres undefined) | inactive: 4.56%
C[C@@H]1CCC2[C@@H](C)C(=O)O[C@@H]3OC4(C)CCC1[C@@]23OO4 (some centres undefined) | inactive: -13.7%
CN1CCN(c2ccc(C=O)cc2)CC1 | inactive: 0.323%

The listing continues.

Compound | activity change, negative = inhibition
N#CC(C#N)=Cc1ccc(O)c(O)c1 | inactive: 1.99%
CN(C)[C@@H]1C(=O)C(C(N)=O)=C(O)[C@@]2(O)C(=O)C3=C(O)c4c(O)cccc4[C@@](C)(O)C3C[C@@H]12 (some centres undefined) | inactive: 1.81%
C=CCn1c(C)c(C=C2C(=O)NC(=O)NC2=O)c2ccccc21 | inactive: 14.1%
COc1cccc(N2C(=O)NC(=O)/C(=C/c3ccc4c(c3)Cc3ccccc3-4)C2=O)c1 | inactive: 6.38%
CCCCCSc1cc(O)c(C(CNC)C(C)C)cc1OC (centres undefined) | inactive: 0.378%
Cc1sc2c(c1C)C(c1ccc(C(C)(C)C)cc1)=NCC(=O)N2CC(=O)Nc1nccs1 | inactive: 0.283%
CC(C)(C)[C@]1(O)C[C@@H]2OC(=O)C[C@@]23C(=O)O[C@@H]2OC(=O)[C@@H](O)C213 (some centres undefined) | inactive: -4.62%
Cc1ccc2nc3c(cc2c1)CC1(C(=O)N(C)C(=O)N(C)C1=O)C1CCCCN31 (centres undefined) | inactive: 2.53%
CN1CCN(c2nc3ccccn3c(=O)c2C=C2C(=O)N(C)C(=O)N(C)C2=O)CC1 | inactive: -1.42%
COc1cc(Br)cc(CN2CCN(C)CC2)c1O | inactive: -2.5%
O=C1NC(=O)C(=Cc2csc3ccccc23)C(=O)N1 | inactive: 2.89%
C=CCN1C(=O)NC(=O)/C(=C/c2ccoc2)C1=O | inactive: 9.57%
CCN1CCN(c2ccc([N+](=O)[O-])cc2C=C2C(=O)NC(=O)NC2=O)CC1 | inactive: 1.98%
COC(=O)C1=C(c2ccc(OCc3ccccc3)cc2)C[C@@H]2CC[C@H]1N2C(=O)NCc1ccc([N+](=O)[O-])cc1 | inactive: -2.61%
C=CCN1C(=O)NC(=O)/C(=C/c2ccc(OC)c(CSc3ccccn3)c2)C1=O | inactive: 1.34%
O=C1NC(=S)N(C2CC2)C(=O)/C1=C/c1ccc2c(c1)CCN2CCCCl | inactive: 0.27%
O=C1NC(=S)NC(=O)C1C1CCCCC1 | inactive: 3.01%
CN1C(=O)C(Cc2ccc(OCc3ccccc3)cc2)C(=O)N(C)C1=O | inactive: -5.87%
NCC(O)c1cc(O)c(O)cc1F (centres undefined) | inactive: 5.7%
O=P(OCC(F)(F)C(F)F)(N1CCCCC1)N1CCCCC1 | inactive: -1.29%

Compound | activity change, negative = inhibition
O=C1NC(=O)C(=Cc2ccc(Sc3ccccc3)o2)C(=O)N1 | inactive: -4.29%
Cc1cccc(N2C(=O)NC(=O)/C(=C/c3ccc([N+](=O)[O-])o3)C2=O)c1 | inactive: 7.26%
CCN1C(=O)NC(=O)/C(=C\c2cn(CC(=O)N3CCCCC3)c3ccccc23)C1=O | inactive: 3.34%
COc1ccc(/C=C2/C(=O)NC(=O)N(C3CCCCC3)C2=O)cc1CSc1ccccn1 | inactive: -14.3%
COc1ccc(CC2C(=O)NC(=O)N(c3ccccc3)C2=O)c(OC)c1 (centres undefined) | inactive: 9.22%
COc1cc(CC2C(=O)N(C)C(=O)N(C)C2=O)ccc1OCc1ccccc1 | inactive: 11.6%
CN(C)c1ccc(/C=C2/C(=O)NC(=O)N(Cc3ccco3)C2=O)cc1 | inactive: -1.48%
CCc1ccc(N2C(=O)NC(=O)/C(=C\c3cc(C)n(-c4cc(C(=O)O)cc(C(=O)O)c4)c3C)C2=O)cc1 | inactive: 5.07%
Cc1cccc(N2C(=O)NC(=O)/C(=C\c3cnc(-c4ccccc4)nc3)C2=O)c1 | inactive: 7.61%
CCC(=NCC1CCCO1)c1c(O)[nH]c(=O)[nH]c1=O (centres undefined) | inactive: 2.64%
CCOc1cc(C=C2C(=O)NC(=O)NC2=O)cc([N+](=O)[O-])c1O | inactive: 3.75%
CC1(C)OC(c2ccccc2)=C/C(=C/C=C2C(=O)NC(=S)NC2=O)O1 | inactive: -2.37%
C=CCn1c(O)c(/C(C)=N/NC(=S)Nc2ccccc2)c(=O)[nH]c1=O | inactive: -2.23%
Cc1cc(C=C2C(=O)NC(=S)NC2=O)c(C)n1-c1ccc2c(c1)OCO2 | inactive: 3.41%
O=C1NC(=O)N(Cc2ccccc2)C(=O)/C1=C/C=C/c1ccco1 | inactive: 0.259%
CC1C(c2cccs2)=[N+]([O-])C(C)(C(=O)c2ccc(Cl)cc2)N1O (centres undefined) | inactive: 6.33%
COc1ccc(N2C(=O)NC(=O)/C(=C/c3cccc(OC(=O)c4cccs4)c3)C2=O)cc1Cl | inactive: 0.914%
CCOC(=O)/C(=N\Nc1ccccc1)N1CC1 | inactive: -4.77%
c1ccc2c3c(ccc2c1)OCC1CONC31 (centres undefined) | inactive: -3.27%
